Results reported in publication PMC9293227 (Clinical Pharmacology in Drug Development, 2021).

Conditions: both, human, plasma, oral, 40 mg

AUC(0-inf): 80.8 ng·h/mL
AUC(0-t): 78.8 ng·h/mL
Cmax: 19.7 ng/mL
Structure (SMILES): CC(C)c1c(C(=O)Nc2ccccc2)c(-c2ccccc2)c(-c2ccc(F)cc2)n1CC[C@@H](O)C[C@@H](O)CC(=O)O [Atorvastatin]
